Reference: PubChem BioAssay AID493014 (National Center for Advancing Translational Sciences (NCATS), 2011)
This is one part of the list. The main result of the screen is listed elsewhere. These columns were measured beside it and carry no call. Most of these compounds were active or inconclusive in the main read-out, so they are no random draw. Potencies come from curve fits of mixed quality, noted in brackets.

Assay: qHTS Assay to Find Inhibitors of Chronic Active B-Cell Receptor Signaling
Conditions: ABC-DLBCL IkBa-CBG/CBR reporter, luminescence ratio (green luciferase fused to IkBa over red control in TMD8 lymphoma cells), 4 h
How it was run: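 Cell line TMD8 (human ABC DLBCL), stably expressing tet-inducible CBG68-IkBa fusion and CBR; IMDM/0.5% FBS; cpd up to 46 uM; dox induction, 4 h, 37C/5% CO2; dual luminescence; green/red ratio; MG132 control.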

[1] = measured here: CBR red luminescence, cell number
[2] = measured here: IkBa-CBG green luminescence

Row | Compound | AC50 [1] | AC50 [2]
1 | CC(C)CCNC(=O)C(=O)Nc1ccc2c(c1)N(S(=O)(=O)c1cccs1)CCC2 | 20.6 µM [falling, partial curve] | –
2 | Cc1nc(NCCc2ccc(O)cc2)c2nnn(Cc3ccccc3)c2n1 | 22.4 µM [falling, single point] | –
3 | O=C(O)c1cccc(OS(=O)(=O)c2cc(Br)ccc2Br)c1 | 18.4 µM [rising, single point] | –
4 | Cc1nc(NC(=S)NC(=O)c2ccco2)sc1C(=O)N(C)C | 10 µM [falling, partial curve] | –
5 | C=CCSc1nc2sc(C)c(C)c2c(=O)n1CC=C | 7.31 µM [rising, partial curve] | –
6 | COc1cccc(C(=O)Nc2ccc3c(C)cc(=O)oc3c2)c1 | 2.51 µM [falling, full curve] | –
7 | COc1cccc(NC(=O)Nc2ccc3nc(C)c(C)nc3c2)c1 | 1.12 µM [falling, full curve, poor fit] | –
8 | CCOC(=O)c1cc(-c2ccccc2)n(CCCC(=O)Nc2cccc(C)c2C)c1C | 10 µM [rising, partial curve, poor fit] | –
9 | O=C(CN1CCN(C(=O)c2ccco2)CC1)Nc1ccc(F)cc1F | 4.47 µM [falling, partial curve] | –
10 | COc1ccc(C2=NN(c3ccccc3)C(c3cccs3)C2)cc1 (stereo unspecified) | 20 µM [rising, partial curve, poor fit] | –
11 | O=C(CCN1C(=O)c2ccccc2S1(=O)=O)N1CCN(c2ccccc2)CC1 | 35.5 µM [rising, single point] | –
12 | CCN(CC(=O)Nc1c(F)cccc1F)C(=O)/C=C/c1ccc(C)o1 | 18.4 µM [falling, partial curve, poor fit] | –
13 | Cc1cc(C)cc(NC(=S)NN)c1 | 1.12 µM [rising, partial curve] | –
14 | COc1ccc(CCNC(=O)c2n[nH]c3ccccc23)cc1 | 20 µM [falling, partial curve, poor fit] | –
15 | Cc1ccc(NC(=O)c2c(C)noc2C)cc1S(=O)(=O)N1CCOCC1 | 11.6 µM [rising, partial curve, poor fit] | –
16 | Cc1cccc(Nc2nnc(SCC3CCCCO3)s2)c1 (stereo unspecified) | 29.1 µM [falling, single point] | –
17 | COc1cccc(-c2ccc(NC(=O)C3CCCN(Cc4cnc(C)s4)C3)cc2)c1 (stereo unspecified) | 7.08 µM [falling, partial curve, poor fit] | –
18 | COc1cc(-c2nnc3sc(Cc4ccccc4)nn23)cc(OC)c1OC | 12.6 µM [falling, partial curve, poor fit] | –
19 | O=C(Nc1cc(C(F)(F)F)ccc1N1CCOCC1)c1n[nH]c(=O)c2ccccc12 | 2.51 µM [rising, partial curve, poor fit] | –
20 | CCn1c(SCC(=O)C(C)(C)C)nnc1-c1cccnc1 | 32.6 µM [falling, single point] | –
21 | O=C(CN1CCCCCC1)Nc1ccc(Cl)cc1F | 6.31 µM [falling, partial curve] | –

Row | Compound | AC50 [1] | AC50 [2]
22 | Cc1csc(CNc2ncnc3ccc(-c4ccccc4Cl)cc23)c1 | 18.4 µM [falling, single point] | –
23 | Cc1cccc(-n2ncc3c(=O)[nH]c(SCC(=O)Nc4cc(C)on4)nc32)c1 | 25.9 µM [rising, single point] | –
24 | COc1ccc(OCCC(=O)OCC(=O)NC2CCCCC2)cc1 | 5.8 µM [rising, single point] | –
25 | O=C(NCCCO)c1ccc2nc(-c3ccco3)c(-c3ccco3)nc2c1 | 35.5 µM [falling, single point] | –
26 | Cc1ccccc1/C(N)=N/OC(=O)c1cccs1 | 29.1 µM [falling, single point] | –
27 | C/C=C/C=C\C(=O)Nc1cccc(C2=NOC3(C2)C[C@@H](C(N)=O)N(C(=O)c2cc([N+](=O)[O-])cc([N+](=O)[O-])c2C)C3)c1 (stereo partly specified) | 1.58 µM [falling, full curve] | –
28 | O=C(N/N=C/c1c(O)n(-c2ccccc2Cl)c(=O)c2ccccc12)C1COc2ccccc2O1 (stereo unspecified) | 14.6 µM [falling, partial curve, poor fit] | –
29 | Cc1cccc2sc(N(Cc3cccnc3)C(=O)c3cccs3)nc12 | – | 5.62 µM [rising, full curve, poor fit]
30 | CCn1c(SCC(=O)N/N=C/C=C/c2ccco2)nc2ccccc21 | – | 18.4 µM [falling, single point]
31 | COc1cc(-c2nc(-c3ccccc3)c(-c3cccs3)[nH]2)cc(OC)c1OC | 16.4 µM [falling, single point] | –
32 | COC(=O)C1=C(C)N(c2cccc3ccccc23)C(=O)C1 | 0.461 µM [falling, full curve, poor fit] | –
33 | Cc1ccc(CNC(=O)COC(=O)C2CCC2)cc1 | 0.731 µM [rising, partial curve, poor fit] | –
34 | COc1ccc(NC(=O)CCC2CCCC2)cc1OC | 5.8 µM [rising, full curve, poor fit] | –
35 | COc1cc(/C=N/NC(=S)Nc2cccc(S(=O)(=O)N(C)C)c2)cc(OC)c1O | 18.4 µM [falling, single point] | –
36 | c1ccc(-c2oc3ncnc(NCCCN4CCOCC4)c3c2-c2ccccc2)cc1 | 17.8 µM [falling, single point] | –
37 | COc1ccc(C(=O)Oc2cccc(Nc3ncnc4ccccc34)c2)cc1OC | 20.6 µM [falling, partial curve, poor fit] | –
38 | Cc1sc(NC(=O)C2C3CCC(O3)C2C(=O)O)nc1-c1ccc(CC(C)C)cc1 (stereo unspecified) | 2.59 µM [rising, full curve] | –
39 | C=CCSc1nnc(NC(=O)Cc2ccc(OC)c(OC)c2)s1 | 15.8 µM [rising, partial curve, poor fit] | –
40 | CCn1cc(/C=N/NS(=O)(=O)c2ccc(OC)cc2)c(C)n1 | 14.6 µM [rising, single point] | –
41 | COC(=O)c1ccc(/C=C2\SC(=S)N(CCCC(=O)NCCCN3CCOCC3)C2=O)cc1 | 35.5 µM [falling, partial curve, poor fit] | –

Of the compounds above, 7 contain a halogen.
Row | Compound | AC50 [1] | AC50 [2]
3 | O=C(O)c1cccc(OS(=O)(=O)c2cc(Br)ccc2Br)c1 | 18.4 µM [rising, single point] | –
9 | O=C(CN1CCN(C(=O)c2ccco2)CC1)Nc1ccc(F)cc1F | 4.47 µM [falling, partial curve] | –
12 | CCN(CC(=O)Nc1c(F)cccc1F)C(=O)/C=C/c1ccc(C)o1 | 18.4 µM [falling, partial curve, poor fit] | –
19 | O=C(Nc1cc(C(F)(F)F)ccc1N1CCOCC1)c1n[nH]c(=O)c2ccccc12 | 2.51 µM [rising, partial curve, poor fit] | –
21 | O=C(CN1CCCCCC1)Nc1ccc(Cl)cc1F | 6.31 µM [falling, partial curve] | –
22 | Cc1csc(CNc2ncnc3ccc(-c4ccccc4Cl)cc23)c1 | 18.4 µM [falling, single point] | –
28 | O=C(N/N=C/c1c(O)n(-c2ccccc2Cl)c(=O)c2ccccc12)C1COc2ccccc2O1 (stereo unspecified) | 14.6 µM [falling, partial curve, poor fit] | –
